No constants are given. Whether binding was seen depends on the method and setting. Binding seen in cells or lysates may run through a third protein. A yes stands for co-enrichment or nearness to the bait. Other partners may have been found. Tags and fused reporters may be left off the sequences shown.
Molecular target: T1, TKT-Flag (UniProt P29401)
T1 sequence: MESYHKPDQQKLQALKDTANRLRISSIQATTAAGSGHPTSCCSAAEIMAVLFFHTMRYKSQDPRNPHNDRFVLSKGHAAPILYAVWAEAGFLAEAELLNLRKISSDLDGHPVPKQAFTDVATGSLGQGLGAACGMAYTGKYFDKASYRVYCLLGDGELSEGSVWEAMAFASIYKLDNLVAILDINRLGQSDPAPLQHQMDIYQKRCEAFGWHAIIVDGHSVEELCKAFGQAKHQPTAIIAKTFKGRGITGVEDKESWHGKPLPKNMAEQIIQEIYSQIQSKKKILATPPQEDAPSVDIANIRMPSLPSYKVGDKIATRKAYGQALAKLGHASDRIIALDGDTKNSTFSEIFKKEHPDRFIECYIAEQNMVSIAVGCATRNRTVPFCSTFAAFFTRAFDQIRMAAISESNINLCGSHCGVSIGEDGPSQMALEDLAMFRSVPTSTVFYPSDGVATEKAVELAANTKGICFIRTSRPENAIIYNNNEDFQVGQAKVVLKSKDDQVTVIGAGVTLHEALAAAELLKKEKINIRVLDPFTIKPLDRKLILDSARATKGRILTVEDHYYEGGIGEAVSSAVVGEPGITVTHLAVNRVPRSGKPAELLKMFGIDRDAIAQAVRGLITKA
Test: affinity purification with mass spectrometry; SMMC-7721 cell lysates immunoprecipitated with the anti-Flag antibody and normal rabbit IgG (NC), SDS-PAGE, silver staining, mass spectrometry

Amino acid sequences for entries named in this document (tags omitted).
UniProt P42224: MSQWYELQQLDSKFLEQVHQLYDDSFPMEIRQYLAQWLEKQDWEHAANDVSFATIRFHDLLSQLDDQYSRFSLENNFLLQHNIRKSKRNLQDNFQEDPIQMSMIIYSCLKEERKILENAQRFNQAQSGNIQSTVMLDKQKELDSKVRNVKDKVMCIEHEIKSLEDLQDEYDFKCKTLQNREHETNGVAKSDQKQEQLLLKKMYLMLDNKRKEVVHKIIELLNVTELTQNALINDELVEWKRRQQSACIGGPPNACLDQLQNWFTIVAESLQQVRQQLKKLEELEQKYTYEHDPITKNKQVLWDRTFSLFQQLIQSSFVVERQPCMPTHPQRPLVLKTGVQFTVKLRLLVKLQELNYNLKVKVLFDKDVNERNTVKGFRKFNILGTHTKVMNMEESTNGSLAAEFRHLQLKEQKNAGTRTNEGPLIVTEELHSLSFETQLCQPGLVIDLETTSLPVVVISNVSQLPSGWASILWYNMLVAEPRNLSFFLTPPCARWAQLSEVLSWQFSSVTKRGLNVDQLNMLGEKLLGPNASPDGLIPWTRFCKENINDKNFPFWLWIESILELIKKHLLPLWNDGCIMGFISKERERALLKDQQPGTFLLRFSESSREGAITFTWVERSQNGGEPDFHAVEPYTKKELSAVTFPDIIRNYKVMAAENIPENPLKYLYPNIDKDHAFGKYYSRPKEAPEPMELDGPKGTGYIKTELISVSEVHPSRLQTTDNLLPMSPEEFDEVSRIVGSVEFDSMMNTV
UniProt O15379: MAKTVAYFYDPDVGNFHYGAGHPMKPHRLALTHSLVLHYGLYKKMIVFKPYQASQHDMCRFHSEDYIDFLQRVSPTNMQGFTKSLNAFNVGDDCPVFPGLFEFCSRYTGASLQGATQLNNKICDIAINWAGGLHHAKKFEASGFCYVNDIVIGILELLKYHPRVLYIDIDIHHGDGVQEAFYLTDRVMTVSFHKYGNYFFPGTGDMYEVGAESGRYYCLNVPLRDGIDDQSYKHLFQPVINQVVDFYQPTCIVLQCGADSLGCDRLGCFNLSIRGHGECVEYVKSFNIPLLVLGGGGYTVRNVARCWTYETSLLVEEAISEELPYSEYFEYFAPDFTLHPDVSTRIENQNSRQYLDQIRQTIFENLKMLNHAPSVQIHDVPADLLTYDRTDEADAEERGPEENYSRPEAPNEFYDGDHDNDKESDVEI

binding | Substance
binds | signal transducer and activator of transcription 1 (STAT1), endogenous (from UniProt P42224 1-750)
binds | histone deacetylase 3 (HDAC3), endogenous (from UniProt O15379 1-428) (enzyme)
